In this test the target is T1, PHB1–DK (prohibitin 1 fused to the fluorescent protein Dreiklang, expressed from the native genomic locus) (human) (UniProt P35232).
T1 sequence: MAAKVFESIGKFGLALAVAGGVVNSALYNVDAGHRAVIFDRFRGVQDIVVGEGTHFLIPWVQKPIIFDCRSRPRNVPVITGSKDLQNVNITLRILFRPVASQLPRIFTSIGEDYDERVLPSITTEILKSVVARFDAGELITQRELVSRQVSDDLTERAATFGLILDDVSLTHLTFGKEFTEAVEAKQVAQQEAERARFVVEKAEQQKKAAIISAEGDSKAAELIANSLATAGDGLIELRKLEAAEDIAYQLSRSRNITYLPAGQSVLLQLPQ
The experiment in a line: co-IP; GFP-Trap agarose beads (nanobody against DK) mixed with 800 µg extract of mitochondria isolated from PHB1-DK or PHB2-DK knock-in U2OS cells; 20 mM Tris-HCl pH 7.5, 50 mM NaCl, 0.5 mM EDTA, 10% glycerol, 0.3% digitonin; 4 °C, 1 h; ten washes; western blot. A general note: In western blotting, separated proteins are transferred to a membrane and probed.

Sequences of proteins named here, by UniProt entry; tags and fusion partners are left off. Residues count along the entry.
UniProt P25705, residues 44-553: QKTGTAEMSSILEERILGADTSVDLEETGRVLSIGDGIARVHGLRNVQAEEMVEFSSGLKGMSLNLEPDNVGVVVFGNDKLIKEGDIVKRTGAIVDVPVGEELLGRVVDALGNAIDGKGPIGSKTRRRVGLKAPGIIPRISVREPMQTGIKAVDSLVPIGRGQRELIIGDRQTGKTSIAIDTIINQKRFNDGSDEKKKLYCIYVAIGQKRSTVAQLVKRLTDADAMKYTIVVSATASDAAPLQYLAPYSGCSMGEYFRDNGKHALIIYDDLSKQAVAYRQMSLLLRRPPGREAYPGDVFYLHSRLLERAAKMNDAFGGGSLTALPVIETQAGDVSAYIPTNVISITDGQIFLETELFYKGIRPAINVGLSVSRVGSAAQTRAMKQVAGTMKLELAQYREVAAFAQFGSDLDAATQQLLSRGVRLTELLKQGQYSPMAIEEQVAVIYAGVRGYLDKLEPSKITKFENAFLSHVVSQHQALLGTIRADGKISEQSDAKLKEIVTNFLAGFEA

Results are given in words; binding and its absence hold for the method and conditions named. Binding seen in cells or lysates may run through a third protein. Where a sequence is shown, tags or fusion partners need not be part of it.

Turning to ATP5A (from UniProt P25705 44-553), the binding result is on record as “no binding”.

(Values after paper PMC11991916.)
